Measurements: PMC7646526
Results are given in words; binding and its absence hold for the method and conditions named. In cells and extracts the contact can be indirect. A result given as binding can be weak or reduced; the word gives no strength.

By UniProt entry, the sequences of proteins in these tests, tags left out. Where a name states a change or a piece, a line headed by the entry shows the natural chain unless it says otherwise.
UniProt P70731: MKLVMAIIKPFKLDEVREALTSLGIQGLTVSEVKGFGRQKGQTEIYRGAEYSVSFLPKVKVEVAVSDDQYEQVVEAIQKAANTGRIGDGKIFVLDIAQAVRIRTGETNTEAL
UniProt A0A0N7I7C7: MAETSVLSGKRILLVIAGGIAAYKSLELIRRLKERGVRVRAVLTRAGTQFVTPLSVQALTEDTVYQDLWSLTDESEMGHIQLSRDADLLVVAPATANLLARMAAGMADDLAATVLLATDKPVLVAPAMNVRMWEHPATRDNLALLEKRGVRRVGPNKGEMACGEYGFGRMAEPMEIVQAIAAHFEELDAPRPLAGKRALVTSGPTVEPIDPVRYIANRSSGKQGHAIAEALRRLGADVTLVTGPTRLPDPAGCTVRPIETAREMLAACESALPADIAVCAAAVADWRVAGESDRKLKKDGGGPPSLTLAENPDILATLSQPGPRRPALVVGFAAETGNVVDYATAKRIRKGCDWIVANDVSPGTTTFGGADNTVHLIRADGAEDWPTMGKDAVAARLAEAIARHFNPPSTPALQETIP

Biological target: His-tagged GlnZ (A. brasilense) (UniProt P70731)
Test: pull-down; 20 μg purified His-GlnZ immobilised on magnetic Ni2+ beads (MagneHis), mixed with E. coli cell extract overexpressing the recombinant protein (100 μl in Fig. S1); 50 mM Tris-HCl pH 8, 0.1 M NaCl, 10% glycerol, 20 mM imidazole, 5 mM MgCl2, with 1 mM ADP, 1 mM ATP or 1 mM ATP + 1.5 mM 2-OG; SDS-PAGE, Coomassie; 2-OG reduced copurification; only the target purified

binding: binds weakly
Substance: CoaBC (G8AF97), recombinant (from UniProt A0A0N7I7C7) (enzyme)
